{
  "source": "patent US20190194722",
  "about": "“METHOD” (Oxford Nanopore Technologies Ltd., published 2019)",
  "target": "T1, Hel308Mbu-E284C/S615C-STrEP(C) (Methanococcoides burtonii) (UniProt Q12WZ6)",
  "T1 sequence": "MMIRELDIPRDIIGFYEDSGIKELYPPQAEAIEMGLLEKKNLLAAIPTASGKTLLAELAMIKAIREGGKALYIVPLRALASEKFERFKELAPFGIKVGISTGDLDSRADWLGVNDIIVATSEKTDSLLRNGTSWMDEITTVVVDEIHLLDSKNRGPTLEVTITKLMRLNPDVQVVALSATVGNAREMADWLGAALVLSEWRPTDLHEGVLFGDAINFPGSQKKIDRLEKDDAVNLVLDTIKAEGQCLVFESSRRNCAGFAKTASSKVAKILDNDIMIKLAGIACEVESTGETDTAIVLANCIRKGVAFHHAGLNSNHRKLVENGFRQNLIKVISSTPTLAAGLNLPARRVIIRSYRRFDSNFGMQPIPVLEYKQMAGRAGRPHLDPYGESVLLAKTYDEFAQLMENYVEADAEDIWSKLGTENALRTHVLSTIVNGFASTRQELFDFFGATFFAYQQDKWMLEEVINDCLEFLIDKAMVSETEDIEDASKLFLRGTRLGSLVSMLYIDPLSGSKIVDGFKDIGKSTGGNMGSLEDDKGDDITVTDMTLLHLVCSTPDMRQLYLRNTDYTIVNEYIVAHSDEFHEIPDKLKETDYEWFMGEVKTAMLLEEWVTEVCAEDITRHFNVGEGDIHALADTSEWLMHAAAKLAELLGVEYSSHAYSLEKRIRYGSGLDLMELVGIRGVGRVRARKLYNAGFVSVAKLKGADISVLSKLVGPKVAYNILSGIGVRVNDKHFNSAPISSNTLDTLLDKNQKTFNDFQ",
  "experiment": "activity assay",
  "details": "helicase loads on 3' overhang and removes MuA from PhiX constructs; 1 uM enzyme, 10 mM ATP, 10 mM MgCl2, room temperature; purified recombinant protein",
  "note": "Tags and fusion partners may be left off the protein sequences shown.",
  "data": [
    {"sequence": "GTTTTCGCATTTATCGTGAAACGCTTTCGCGTTTTTCGTGCGCCGCTTCA / GATCTGAAGCGGCGCACGAAAAACGCGAAAGCGTTTCACGATAAATGCGAAAACTTTTTTTTTT [transposon 2]", "values": [
      {"measurement": "activity on this sequence", "value": "active"}
    ]}
  ]
}
